In patent publication US20160320413A1 (D GEN, published 2016) one finds binding data, which are given here for one molecule.

These are yes or no findings as the source states them, for the method shown. Some results given as binding are weak or reduced against the parent protein; the word gives no strength.

For the assay, the target named is abnormal human PrP (disease associated PrP, including PrPSc) from vCJD brain homogenate, blood or ur (human) (UniProt P04156). In words: Immunodetection on steel powder, chemiluminescence, FIG. 1.

B1: ICSM18 anti-PrP antibody (D-Gen Ltd, product code 0130-01810), biotinylated (antibody, V domains shown)
VH: EVQLQQSGPELVKPGSSVKISCKASRNTFTDYNLDWVKQSHGKTLEWIGNVYPNNGVTGYNQKFRGKATLTVDKSSSTAYMELHSLTSEDSAVYYCALYYYDVSYWGQGTLVTVSA
VL: QIVLTQSPAIMSASPGEKVTMTCSASSSVSYMHWYQQKSGTSPKRWIYDTSKLASGVPARFSGSGSGTSYSLTISSMEAEDAATYFCHQWRSNPYTFGGGTKLEIKR
In the case of B1, the binding result is on record as “binds”.
